Among all 330,000 compounds or so, about 7,700 (2.3%) were called active. Inconclusive means that the source gave no clear call. Such entries were picked first, then a sample of the others. Calls come from the whole dose curve; as a rule, active = well fitted inhibition curve with a large enough effect; inconclusive = small, poorly fitted or top-dose-only effect, or effect the other way; inactive = flat fitted curve, though single readings scatter. Potencies of inconclusive entries are doubtful fits and often do not repeat.
Assay: qHTS screen for small molecules that inhibit ELG1-dependent DNA repair in human embryonic kidney (HEK293T) cells expressing luciferase-tagged ELG1; note: nearly all actives have a fitted effect of over 55% in size
Conditions: HEK293T ELG1-luciferase reporter, luminescence, 16 h, DNA damage induced by 5-fluorouridine; activity change, negative = inhibition: at 46.1 µM (top of the series)
Summary of the method: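 Overnight (16 hr) co-exposure of 2,000 cells/well to 5-fluorouridine and compound at 37 °C preceded detection. Luciferase was quantified via ONE-Glo luminescence; loss of signal denotes inhibition.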
% is set by controls: 0 for no effect and ±100 for the full control effect; potency is the fitted concentration of half-maximal effect.

Compound	activity change, negative = inhibition	Potency
CC1=C(C(=O)OCc2ccccc2)C(c2ccccc2[N+](=O)[O-])NC(=O)N1C (stereo not given)	inactive: -8.04%	–
Cc1cnc(C(=O)OCC(=O)N2CC(C)CC(C)C2)cn1 (stereo not given)	inactive: 0%	–
COc1ccc(OC)c(S(=O)(=O)Nc2ccc(-c3ccc4nncn4n3)cc2)c1	inactive: -14.7%	–
COc1ccccc1C(=O)Nc1nnc(-c2ccccc2)s1	–	inconclusive: 11.2 µM [activator, partial curve]
CN(c1ccc(C(=O)Nc2cccnc2)cc1)S(=O)(=O)c1ccc(Cl)cc1	inactive: -1.69%	–
COc1ccc(-c2nnc(N(C)C(=O)c3ccno3)s2)cc1	–	inconclusive: 16.4 µM [activator, partial curve]
Cc1cc(C)cc(Nc2nc(-c3ccc(S(=O)(=O)N4CCCC4)cc3)cs2)c1	–	active: 23.1 µM
Cc1nnc(N/N=C/c2ccc(O)c([N+](=O)[O-])c2)[nH]c1=O	inactive: 1.86%	–
CC[C@]12c3[nH]c4ccccc4c3CCN1C(=O)C(CC(=O)NC(C)(C)C)C[C@@H]2C(=O)N1CCN(C(=O)C2CC2)CC1 (stereo not given in full)	–	inconclusive: 20.6 µM [activator, partial curve, poor fit]
Cc1n[nH]c(C)c1CCCCOc1ccccc1[N+](=O)[O-]	inactive: 0.766%	–
CN1CCN(c2ccccc2NC(=O)c2ccc(-c3ccccc3[N+](=O)[O-])o2)CC1	inactive: -20.8%	–
O=C(N/N=C/c1ccc([N+](=O)[O-])o1)c1cn(-c2ccccc2)nc1-c1ccccc1	–	inconclusive: 3.26 µM [inhibitor, partial curve, poor fit]
Cc1ccc(C2CN(C)C3(C(=O)Nc4ccccc43)C23COc2ccccc2C3=O)cc1 (stereo not given)	inactive: -5.58%	–
CCOC(=O)c1cc(NC(=O)Nc2ccccc2OC)c(C)nc1C	–	inconclusive: 20.6 µM [inhibitor, partial curve, poor fit]
CCC(=O)c1ccc(OCC(=O)OCC(=O)N2c3ccccc3NC(=O)C2(C)C)cc1	–	inconclusive: 12.6 µM [activator, single point]
CCOc1ccccc1N1CCN(c2nc(N)c(C#N)c(CC#N)c2C#N)CC1	inactive: -27.8%	–
CCOC(=O)C1CCN(C(=O)c2sc3ncnc(N4CCC(C)CC4)c3c2C)CC1	–	active: 23.1 µM
CCCn1nc(C(=O)N2CCc3ccccc32)c2ccccc2c1=O	–	inconclusive: 29.1 µM [inhibitor, single point]
COc1ccc(C(=O)OCc2nc(N)nc(Nc3ccccc3C)n2)cc1OC	–	inconclusive: 29.1 µM [inhibitor, single point]
N#Cc1ccc(S(=O)(=O)N2CCCN(c3nc4ccc(Cl)cc4s3)CC2)cc1	–	inconclusive: 18.3 µM [inhibitor, single point]

Retrieved by structure from above, 2 records:
Compound	activity change, negative = inhibition	Potency
Cc1cc(C)cc(Nc2nc(-c3ccc(S(=O)(=O)N4CCCC4)cc3)cs2)c1	–	active: 23.1 µM
Cc1n[nH]c(C)c1CCCCOc1ccccc1[N+](=O)[O-]	inactive: 0.766%	–
